Results deposited as PubChem BioAssay AID1159594 (NIAID, 2016).
Purpose: 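Which core toll-like receptor signalling genes are needed for TNF promoter activation by Pam2CSK4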. System: human THP-1 B5 reporter cells, PMA-differentiated into macrophage-like cells. Reagents: single siRNA against human genes. Time to read-out: 48 to 72 hours after siRNA transfection; ligand exposure 4 hours. Challenge: Pam2CSK4 (TLR2/6 agonist) stimulation for 4 hours before lysis; dose not given. Detection: 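Robust z-score, relative to negative controls, of the firefly/renilla ratio from a TNF promoter reporter, after per-plate median/MAD scaling, mean of replicate screens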. Scale: TNF reporter z-score: higher = stronger TNF promoter reporter activity. Hit rule: 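Active when the mean z-score across replicates is at or beyond ±1.5 in either direction, matching a depositor grade of 50 or higher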. Meaning of the calls: active = z-score beyond ±1.5 (either direction); inactive = z-score within ±1.5.
In all, the deposit lists 756 reagents; below is an unselected part. 130 of them (17%) count as active. 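Active calls cover both falls and rises of reporter activity; each row reflects one siRNA, not a gene-level verdict.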 Entries without a mark were called inactive. No sequences are given here. Not given: the amount of reagent.

Knock-down of TOLLIP (toll interacting protein) [SID303071176] gave: TNF reporter z-score, replicate mean -0.397.
For TOLLIP (toll interacting protein) [SID303071177], the values are TNF reporter z-score, replicate mean -0.408.
Knock-down of TOLLIP (toll interacting protein) [SID303071178] resulted in: TNF reporter z-score, replicate mean 0.029.
For TOLLIP (toll interacting protein) [SID303071179], the values are TNF reporter z-score, replicate mean -1.78 (active).
TOLLIP (toll interacting protein) [SID303071180] scored TNF reporter z-score, replicate mean -1.17.
For TOLLIP (toll interacting protein) [SID303071181], the entry reads TNF reporter z-score, replicate mean 0.124.
After knock-down of TRAF3 (TNF receptor associated factor 3) [SID303070582] the results were TNF reporter z-score, replicate mean 0.242.
For TRAF3 (TNF receptor associated factor 3) [SID303070583], the values are TNF reporter z-score, replicate mean 0.199.
Silencing of TRAF3 (TNF receptor associated factor 3) [SID303070584] resulted in: TNF reporter z-score, replicate mean -0.108.
TRAF3 (TNF receptor associated factor 3) [SID303070585] showed TNF reporter z-score, replicate mean -0.388.
For TRAF3 (TNF receptor associated factor 3) [SID303070586], the entry reads TNF reporter z-score, replicate mean -0.753.
For TRAF3 (TNF receptor associated factor 3) [SID303070587], the values are TNF reporter z-score, replicate mean 0.127.
Against IRAK3 (interleukin 1 receptor associated kinase 3) [SID303071140], the entry reads TNF reporter z-score, replicate mean -0.796.
IRAK3 (interleukin 1 receptor associated kinase 3) [SID303071141] scored TNF reporter z-score, replicate mean -0.304.
After knock-down of IRAK3 (interleukin 1 receptor associated kinase 3) [SID303071142], the screen gave TNF reporter z-score, replicate mean 0.262.
For IRAK3 (interleukin 1 receptor associated kinase 3) [SID303071143], the values are TNF reporter z-score, replicate mean -0.44.
After knock-down of IRAK3 (interleukin 1 receptor associated kinase 3) [SID303071144], the record shows TNF reporter z-score, replicate mean -0.506.
Silencing of IRAK3 (interleukin 1 receptor associated kinase 3) [SID303071145] came out at: TNF reporter z-score, replicate mean -0.447.
After knock-down of TLR8 (toll like receptor 8) [SID303070480], the record shows TNF reporter z-score, replicate mean -0.162.
Against TLR8 (toll like receptor 8) [SID303070481], the entry reads TNF reporter z-score, replicate mean 0.456.
TLR8 (toll like receptor 8) [SID303070482] gave TNF reporter z-score, replicate mean -0.136.
Knock-down of TLR8 (toll like receptor 8) [SID303070483] gave: TNF reporter z-score, replicate mean -1.29.
Against TLR8 (toll like receptor 8) [SID303070484], the entry reads TNF reporter z-score, replicate mean -0.102.
With knock-down of TLR8 (toll like receptor 8) [SID303070485] the results were TNF reporter z-score, replicate mean -0.295.

7 entries from above, set out differently.
TRAF3 (TNF receptor associated factor 3) [SID303070583]
- TNF reporter z-score, replicate mean: 0.199

TRAF3 (TNF receptor associated factor 3) [SID303070584]
- TNF reporter z-score, replicate mean: -0.108

TRAF3 (TNF receptor associated factor 3) [SID303070585]
- TNF reporter z-score, replicate mean: -0.388

TRAF3 (TNF receptor associated factor 3) [SID303070586]
- TNF reporter z-score, replicate mean: -0.753

TRAF3 (TNF receptor associated factor 3) [SID303070587]
- TNF reporter z-score, replicate mean: 0.127

IRAK3 (interleukin 1 receptor associated kinase 3) [SID303071140]
- TNF reporter z-score, replicate mean: -0.796

IRAK3 (interleukin 1 receptor associated kinase 3) [SID303071141]
- TNF reporter z-score, replicate mean: -0.304

The listing continues:
IL33R (interleukin 33 receptor) [SID303071134] gave TNF reporter z-score, replicate mean -0.647.
For IL33R (interleukin 33 receptor) [SID303071135], the entry reads TNF reporter z-score, replicate mean -1.4.
Knock-down of IL33R (interleukin 33 receptor) [SID303071136] gave: TNF reporter z-score, replicate mean 0.0424.
IL33R (interleukin 33 receptor) [SID303071137] showed TNF reporter z-score, replicate mean 0.45.
IL33R (interleukin 33 receptor) [SID303071138] showed TNF reporter z-score, replicate mean -2.35 (active).
For IL33R (interleukin 33 receptor) [SID303071139] the deposit lists TNF reporter z-score, replicate mean -0.329.
With knock-down of RIPK1 (receptor interacting serine/threonine kinase 1) [SID303070798], the screen gave TNF reporter z-score, replicate mean -0.225.
Against RIPK1 (receptor interacting serine/threonine kinase 1) [SID303070799], the entry reads TNF reporter z-score, replicate mean -0.423.
After knock-down of RIPK1 (receptor interacting serine/threonine kinase 1) [SID303070800], the screen gave TNF reporter z-score, replicate mean -0.555.
For RIPK1 (receptor interacting serine/threonine kinase 1) [SID303070801], the values are TNF reporter z-score, replicate mean -0.452.
Depletion of RIPK1 (receptor interacting serine/threonine kinase 1) [SID303070802] gave: TNF reporter z-score, replicate mean -0.297.
Against RIPK1 (receptor interacting serine/threonine kinase 1) [SID303070803], the entry reads TNF reporter z-score, replicate mean -0.0322.
For MAPK8 (mitogen-activated protein kinase 8) [SID303070756] the deposit lists TNF reporter z-score, replicate mean -0.0455.
MAPK8 (mitogen-activated protein kinase 8) [SID303070757] scored TNF reporter z-score, replicate mean -0.307.
Against MAPK8 (mitogen-activated protein kinase 8) [SID303070758], the values are TNF reporter z-score, replicate mean -0.569.
Silencing of MAPK8 (mitogen-activated protein kinase 8) [SID303070759] came out at: TNF reporter z-score, replicate mean 0.952.
Silencing of MAPK8 (mitogen-activated protein kinase 8) [SID303070760] resulted in: TNF reporter z-score, replicate mean -0.433.
MAPK8 (mitogen-activated protein kinase 8) [SID303070761] showed TNF reporter z-score, replicate mean 0.642.
After knock-down of IL1B (interleukin 1 beta) [SID303071080] the results were TNF reporter z-score, replicate mean 0.418.
IL1B (interleukin 1 beta) [SID303071081] scored TNF reporter z-score, replicate mean -0.801.
IL1B (interleukin 1 beta) [SID303071082] gave TNF reporter z-score, replicate mean -1.41.
After knock-down of IL1B (interleukin 1 beta) [SID303071083] the results were TNF reporter z-score, replicate mean -0.57.
With knock-down of IL1B (interleukin 1 beta) [SID303071084], the record shows TNF reporter z-score, replicate mean -1.66 (active).
With knock-down of IL1B (interleukin 1 beta) [SID303071085], the record shows TNF reporter z-score, replicate mean -0.916.
